The supplement of paper PMC6411743
± gives the standard deviation of the averaged measurements. The list shows a part of the results.

By UniProt entry, the sequences of proteins in these tests, tags left out. Where a name states a change or a piece, a line headed by the entry shows the natural chain unless it says otherwise.
UniProt Q9BQP7: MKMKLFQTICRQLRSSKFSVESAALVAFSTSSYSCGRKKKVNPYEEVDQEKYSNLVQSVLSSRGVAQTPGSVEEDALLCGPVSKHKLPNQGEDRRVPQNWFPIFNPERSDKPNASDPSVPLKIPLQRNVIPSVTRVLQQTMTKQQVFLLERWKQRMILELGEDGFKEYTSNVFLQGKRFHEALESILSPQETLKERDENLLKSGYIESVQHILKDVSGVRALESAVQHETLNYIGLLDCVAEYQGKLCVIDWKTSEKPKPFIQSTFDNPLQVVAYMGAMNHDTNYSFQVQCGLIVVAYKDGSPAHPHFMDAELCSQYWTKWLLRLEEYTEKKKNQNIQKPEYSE
UniProt Q9BVA0, whole entry: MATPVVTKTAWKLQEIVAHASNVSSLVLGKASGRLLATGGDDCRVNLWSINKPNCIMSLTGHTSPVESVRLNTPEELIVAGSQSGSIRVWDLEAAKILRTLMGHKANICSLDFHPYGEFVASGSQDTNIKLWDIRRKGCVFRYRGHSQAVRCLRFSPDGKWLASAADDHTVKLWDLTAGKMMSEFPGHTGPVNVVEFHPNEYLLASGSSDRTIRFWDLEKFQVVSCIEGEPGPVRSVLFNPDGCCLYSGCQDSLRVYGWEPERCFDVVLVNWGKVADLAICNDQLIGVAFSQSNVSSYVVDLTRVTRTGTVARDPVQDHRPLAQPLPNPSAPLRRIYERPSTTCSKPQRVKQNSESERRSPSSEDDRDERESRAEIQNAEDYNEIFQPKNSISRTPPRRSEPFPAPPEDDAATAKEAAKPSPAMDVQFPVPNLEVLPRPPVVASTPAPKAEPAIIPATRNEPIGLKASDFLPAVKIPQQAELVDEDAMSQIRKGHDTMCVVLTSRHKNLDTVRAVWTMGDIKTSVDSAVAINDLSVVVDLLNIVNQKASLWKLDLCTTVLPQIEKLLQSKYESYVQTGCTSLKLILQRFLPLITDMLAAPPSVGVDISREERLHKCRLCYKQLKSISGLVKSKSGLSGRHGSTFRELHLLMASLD
UniProt Q9BTC0, whole entry: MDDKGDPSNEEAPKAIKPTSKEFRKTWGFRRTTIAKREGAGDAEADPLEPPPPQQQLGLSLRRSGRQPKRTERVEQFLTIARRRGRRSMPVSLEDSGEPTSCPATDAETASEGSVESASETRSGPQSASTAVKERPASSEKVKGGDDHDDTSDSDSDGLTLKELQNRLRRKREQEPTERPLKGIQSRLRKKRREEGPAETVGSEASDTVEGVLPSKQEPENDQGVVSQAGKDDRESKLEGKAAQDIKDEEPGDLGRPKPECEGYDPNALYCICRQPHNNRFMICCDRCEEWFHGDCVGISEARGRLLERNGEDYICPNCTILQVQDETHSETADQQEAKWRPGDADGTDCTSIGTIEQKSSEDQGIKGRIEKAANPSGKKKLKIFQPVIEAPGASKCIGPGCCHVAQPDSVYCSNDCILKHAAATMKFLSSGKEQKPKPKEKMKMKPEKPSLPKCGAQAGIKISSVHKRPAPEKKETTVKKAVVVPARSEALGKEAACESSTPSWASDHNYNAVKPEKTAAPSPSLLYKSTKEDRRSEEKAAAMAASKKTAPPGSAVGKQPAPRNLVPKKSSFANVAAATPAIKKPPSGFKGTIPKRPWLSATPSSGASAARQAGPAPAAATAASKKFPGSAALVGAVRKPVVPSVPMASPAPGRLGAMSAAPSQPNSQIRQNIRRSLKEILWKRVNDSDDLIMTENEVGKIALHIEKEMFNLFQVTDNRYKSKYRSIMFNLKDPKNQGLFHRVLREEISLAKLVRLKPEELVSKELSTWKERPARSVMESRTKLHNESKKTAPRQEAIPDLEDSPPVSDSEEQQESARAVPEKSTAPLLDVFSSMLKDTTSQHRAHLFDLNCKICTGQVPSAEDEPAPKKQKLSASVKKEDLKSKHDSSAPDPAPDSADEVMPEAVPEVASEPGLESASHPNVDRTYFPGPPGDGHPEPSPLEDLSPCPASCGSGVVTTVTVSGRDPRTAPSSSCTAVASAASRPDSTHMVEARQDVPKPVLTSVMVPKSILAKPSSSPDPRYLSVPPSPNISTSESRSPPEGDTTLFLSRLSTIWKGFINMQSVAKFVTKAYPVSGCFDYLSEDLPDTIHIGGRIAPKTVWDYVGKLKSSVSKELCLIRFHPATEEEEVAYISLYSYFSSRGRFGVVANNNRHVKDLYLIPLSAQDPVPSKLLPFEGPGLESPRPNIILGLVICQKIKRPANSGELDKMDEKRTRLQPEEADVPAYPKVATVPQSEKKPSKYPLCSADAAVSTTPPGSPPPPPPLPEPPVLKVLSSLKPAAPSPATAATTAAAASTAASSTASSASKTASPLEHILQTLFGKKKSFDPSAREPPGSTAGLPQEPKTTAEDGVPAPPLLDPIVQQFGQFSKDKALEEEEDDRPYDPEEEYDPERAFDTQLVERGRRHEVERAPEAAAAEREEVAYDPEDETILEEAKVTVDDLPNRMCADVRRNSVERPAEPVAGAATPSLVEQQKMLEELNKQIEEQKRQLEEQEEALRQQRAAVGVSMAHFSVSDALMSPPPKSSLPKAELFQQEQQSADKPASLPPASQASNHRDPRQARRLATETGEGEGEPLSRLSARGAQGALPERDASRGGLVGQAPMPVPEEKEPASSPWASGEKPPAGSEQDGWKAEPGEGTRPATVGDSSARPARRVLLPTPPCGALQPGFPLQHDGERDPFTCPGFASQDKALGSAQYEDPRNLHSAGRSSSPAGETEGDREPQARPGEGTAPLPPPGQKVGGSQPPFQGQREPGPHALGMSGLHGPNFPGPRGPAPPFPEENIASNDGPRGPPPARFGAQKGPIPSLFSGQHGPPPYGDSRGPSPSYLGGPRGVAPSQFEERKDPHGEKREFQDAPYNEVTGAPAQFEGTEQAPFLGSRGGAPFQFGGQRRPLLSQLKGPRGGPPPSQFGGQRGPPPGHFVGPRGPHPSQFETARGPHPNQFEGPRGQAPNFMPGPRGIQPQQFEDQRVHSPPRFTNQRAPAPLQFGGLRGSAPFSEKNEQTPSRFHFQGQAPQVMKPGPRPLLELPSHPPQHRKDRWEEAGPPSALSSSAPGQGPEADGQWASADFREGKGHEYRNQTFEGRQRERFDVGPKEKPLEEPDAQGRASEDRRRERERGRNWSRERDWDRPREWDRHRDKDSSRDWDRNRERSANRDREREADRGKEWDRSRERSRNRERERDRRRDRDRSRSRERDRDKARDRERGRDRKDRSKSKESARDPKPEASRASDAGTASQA
UniProt Q96N46: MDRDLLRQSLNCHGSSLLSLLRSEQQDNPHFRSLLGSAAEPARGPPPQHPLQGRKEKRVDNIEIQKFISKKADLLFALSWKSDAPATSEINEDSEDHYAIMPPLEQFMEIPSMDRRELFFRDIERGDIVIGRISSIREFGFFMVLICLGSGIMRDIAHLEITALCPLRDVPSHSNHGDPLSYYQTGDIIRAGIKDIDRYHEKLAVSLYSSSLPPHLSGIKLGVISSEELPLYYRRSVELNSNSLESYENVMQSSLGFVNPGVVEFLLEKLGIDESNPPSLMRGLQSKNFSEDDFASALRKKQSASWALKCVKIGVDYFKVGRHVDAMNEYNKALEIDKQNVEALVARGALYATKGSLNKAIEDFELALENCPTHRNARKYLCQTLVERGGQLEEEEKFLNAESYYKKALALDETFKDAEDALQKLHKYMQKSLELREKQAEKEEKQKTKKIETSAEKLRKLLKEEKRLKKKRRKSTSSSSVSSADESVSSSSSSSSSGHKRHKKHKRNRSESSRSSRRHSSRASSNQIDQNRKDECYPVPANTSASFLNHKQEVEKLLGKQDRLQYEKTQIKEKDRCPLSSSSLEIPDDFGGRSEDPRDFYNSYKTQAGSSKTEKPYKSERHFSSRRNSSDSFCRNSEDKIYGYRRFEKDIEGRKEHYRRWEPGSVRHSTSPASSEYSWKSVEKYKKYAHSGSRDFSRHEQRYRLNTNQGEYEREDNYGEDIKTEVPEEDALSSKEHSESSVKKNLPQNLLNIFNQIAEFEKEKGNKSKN
UniProt Q96T76: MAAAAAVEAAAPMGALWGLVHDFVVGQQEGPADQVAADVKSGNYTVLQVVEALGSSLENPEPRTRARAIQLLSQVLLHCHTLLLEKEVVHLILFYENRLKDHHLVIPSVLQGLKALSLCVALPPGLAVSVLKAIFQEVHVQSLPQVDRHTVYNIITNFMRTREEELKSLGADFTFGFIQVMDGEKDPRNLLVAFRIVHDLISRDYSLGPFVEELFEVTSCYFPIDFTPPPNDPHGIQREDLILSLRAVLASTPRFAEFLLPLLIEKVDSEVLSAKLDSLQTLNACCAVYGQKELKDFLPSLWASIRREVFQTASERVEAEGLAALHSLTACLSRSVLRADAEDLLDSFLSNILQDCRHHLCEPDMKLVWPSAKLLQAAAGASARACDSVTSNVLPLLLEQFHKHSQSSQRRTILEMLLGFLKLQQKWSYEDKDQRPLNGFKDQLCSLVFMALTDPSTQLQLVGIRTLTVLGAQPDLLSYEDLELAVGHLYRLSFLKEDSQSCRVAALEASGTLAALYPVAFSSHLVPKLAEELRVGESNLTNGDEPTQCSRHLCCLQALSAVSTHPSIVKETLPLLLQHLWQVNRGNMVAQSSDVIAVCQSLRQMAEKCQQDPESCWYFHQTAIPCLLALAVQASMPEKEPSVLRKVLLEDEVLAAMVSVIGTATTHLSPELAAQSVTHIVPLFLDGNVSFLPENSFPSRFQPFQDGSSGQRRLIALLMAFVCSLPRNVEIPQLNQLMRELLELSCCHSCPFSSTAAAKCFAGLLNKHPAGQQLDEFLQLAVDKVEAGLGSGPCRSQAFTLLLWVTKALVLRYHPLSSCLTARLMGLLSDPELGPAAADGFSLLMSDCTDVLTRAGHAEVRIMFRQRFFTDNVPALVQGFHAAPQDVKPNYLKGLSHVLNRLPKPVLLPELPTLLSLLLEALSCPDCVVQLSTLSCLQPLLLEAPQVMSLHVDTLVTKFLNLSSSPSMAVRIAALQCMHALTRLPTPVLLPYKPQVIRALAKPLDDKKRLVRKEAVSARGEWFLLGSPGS

Compound: Nc1nc2c(ncn2[C@@H]2O[C@H](COP(=O)(O)OP(=O)(O)OP(=O)(O)O)[C@@H](O)[C@H]2O)c(=O)[nH]1 [guanosine triphosphate]
Assay: NP40-soluble protein abundance relative to vehicle (solubility fold change) (ratio); higher = more soluble protein in presence of GTP
Experimental: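 Solubility proteome profiling in Jurkat crude lysate. Lysate was treated with Mg-GTP (0.1-10 mM) for 10 min at room temperature and 3 min at 37 °C, then solubilised with 0.8% NP40 and benzonase, followed by ultracentrifugation. Proteins were quantified by TMT10 LC-MS/MS; the value is the NP40-soluble abundance relative to the NP40-processed vehicle, from 3 independent experiments.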

Target: UniProt Q9BQP7
- NP40-soluble protein abundance (concentration: 0.1mM): 0.966 ± 0.04
- NP40-soluble protein abundance (concentration: 0.5mM): 0.955 ± 0.013
- NP40-soluble protein abundance (concentration: 1mM): 0.993 ± 0.062
- NP40-soluble protein abundance (concentration: 2mM): 0.959 ± 0.066
- NP40-soluble protein abundance (concentration: 4mM): 0.956 ± 0.096
- NP40-soluble protein abundance (concentration: 6mM): 0.938 ± 0.059
- NP40-soluble protein abundance (concentration: 8mM): 0.948 ± 0.073
- NP40-soluble protein abundance (concentration: 10mM): 0.943 ± 0.062

Target: KATNB1 (UniProt Q9BVA0)
- NP40-soluble protein abundance (concentration: 0.1mM): 1.04 ± 0.024
- NP40-soluble protein abundance (concentration: 0.5mM): 1.05 ± 0.039
- NP40-soluble protein abundance (concentration: 1mM): 1.01 ± 0.039
- NP40-soluble protein abundance (concentration: 2mM): 0.987 ± 0.052
- NP40-soluble protein abundance (concentration: 4mM): 1.01 ± 0.043
- NP40-soluble protein abundance (concentration: 6mM): 0.971 ± 0.037
- NP40-soluble protein abundance (concentration: 8mM): 1.01 ± 0.048
- NP40-soluble protein abundance (concentration: 10mM): 0.966 ± 0.074

Target: DIDO1 (UniProt Q9BTC0)
- NP40-soluble protein abundance (concentration: 0.1mM): 1.02 ± 0.055
- NP40-soluble protein abundance (concentration: 0.5mM): 1.07 ± 0.062
- NP40-soluble protein abundance (concentration: 1mM): 1.12 ± 0.077
- NP40-soluble protein abundance (concentration: 2mM): 1.13 ± 0.11
- NP40-soluble protein abundance (concentration: 4mM): 1.23 ± 0.12
- NP40-soluble protein abundance (concentration: 6mM): 1.23 ± 0.13
- NP40-soluble protein abundance (concentration: 8mM): 1.3 ± 0.22
- NP40-soluble protein abundance (concentration: 10mM): 1.28 ± 0.19

Target: UniProt Q96N46 and related entries
- NP40-soluble protein abundance (concentration: 0.1mM): 1.092 ± 0.0039
- NP40-soluble protein abundance (concentration: 0.5mM): 0.984 ± 0.027
- NP40-soluble protein abundance (concentration: 1mM): 0.998 ± 0.028
- NP40-soluble protein abundance (concentration: 2mM): 1.07 ± 0.027
- NP40-soluble protein abundance (concentration: 4mM): 1.16 ± 0.12
- NP40-soluble protein abundance (concentration: 6mM): 1 ± 0.042
- NP40-soluble protein abundance (concentration: 8mM): 1.06 ± 0.077
- NP40-soluble protein abundance (concentration: 10mM): 1.06 ± 0.077

Target: UniProt Q96T76 and related entries
- NP40-soluble protein abundance (concentration: 0.1mM): 1.03 ± 0.026
- NP40-soluble protein abundance (concentration: 0.5mM): 1.02 ± 0.12
- NP40-soluble protein abundance (concentration: 1mM): 1.03 ± 0.017
- NP40-soluble protein abundance (concentration: 2mM): 1.01 ± 0.071
- NP40-soluble protein abundance (concentration: 4mM): 0.952 ± 0.11
- NP40-soluble protein abundance (concentration: 6mM): 0.982 ± 0.045
- NP40-soluble protein abundance (concentration: 8mM): 0.988 ± 0.055
- NP40-soluble protein abundance (concentration: 10mM): 0.99 ± 0.13
